# Screening data, single-dose tests

Source: ChEMBL document CHEMBL3988442, “University of Dundee, Small-Polar-MMV Screening Library” (2021).

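Growth of Mycobacterium tuberculosis over 3 days (7H9 medium with glucose and tyloxapol); the read-out is not stated. Compounds at 50 µM. Higher reads as more growth inhibition (inferred: compounds with an IC50 in retests scored well above the rest). Size under these conditions: about 69,000 compounds, about 760 of them at 50% or above in at least one test.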

Each number is a percent effect as filed. The record does not define 0% and 100%; most values in the screen are far below 50% and negative numbers occur (in some assays of this library far below -100). This is an unselected part of the compounds tested. Two or more numbers in one place are separate tests of the same structure; such repeats can differ widely.

* COc1ccnc(N2CCN(C(=O)COCC(F)(F)F)CC2)n1 | -16.7%
* [H][C@@]12CS(=O)(=O)C[C@]1([H])N(C(=O)c1cc(C)on1)CCN2C(=O)CC(C)C | -4.043%
* O=C(C1CCOCC1)N1C[C@@H](F)[C@@H](OCc2nc3cc(F)ccc3[nH]2)C1 | -2.482% and -10.43%
* Cc1ccccc1C1CCN(CCNC(=O)CS(C)(=O)=O)C1 (centres unmarked) | -22.86% and -3.288%
* [H][C@@]12CCCC[C@]1(O)CCN(Cc1ccc(OC)c(C(=O)O)c1)C2 | -15.05% and -9.369%
* CCN(CC)C(=O)Cc1csc(C(C)C)n1 | -12.49%
* COc1cc(CNc2nc(C(F)(F)F)no2)cc(OC)c1OC | -13.76%
* Cc1cc(C)nc(-n2nc(C)c3c2NC(=O)CSC3c2cnn(C)c2)n1 (centres unmarked) | -5.916%
* COc1ccc(-c2ccnc3c2C(=O)CCC3)cc1 | -27.49%
* CCSc1nnc(N(CCC#N)CCC#N)s1 | -0.8262% and -14.58%
* COc1cccc(CNC2CCSC2)c1OC (centres unmarked) | 0.1635% and 37.74%
* COCCNCC1(O)CCCN(Cc2ccc(F)c(F)c2)C1=O (centres unmarked) | -12.06%
* CN(C)Cc1n[nH]c2c1CCN(Cc1cccs1)C2.O=C(O)C(F)(F)F.O=C(O)C(F)(F)F | -12.27%
* Cc1ccc(Nc2nccc(C3CCN(CC(N)=O)C3)n2)nc1 (centres unmarked) | 6.755%
* O=C(O)C(F)(F)F.[H][C@]12C[C@H](C(=O)NC)N(S(C)(=O)=O)[C@@]1([H])CN(C(=O)c1ccncc1)C2 | -26.91%
* [H][C@@]12C[C@H](C(=O)NCC3CC3)[C@@]([H])(CN(S(=O)(=O)Cc3ccccc3)C1)O2 | -43.7%
* CC(C)CC(=O)N1CCCCC(NC(=O)CCc2cccnc2)C1 (centres unmarked) | 14.83%
* Cc1cccc(N2Cc3nc(=O)n(Cc4cccc(F)c4)n3C2=O)c1 | -5.413%
* CC(NCc1cn(CCC(N)=O)c2ccccc12)c1nncn1C (centres unmarked) | -23.17%
* CC(C)c1nc(CN2CCN(C(=O)CC3CCCCC3)CC2)no1 | 8.593%
* Cc1cnn(C2CCCN(C(=O)c3cc(Cl)c4c(c3)OCO4)C2)c1 (centres unmarked) | 0.3667%
* Cc1ccc(C(=O)N2CCc3nc4c(C)csc4c(=O)n3CC2)cn1 | 7.846%
* COCCCn1cnnc1CNC(=O)c1[nH]c2c(C)cc(C)cc2c1C | 4.349%
* COCC(NC(=O)c1ccoc1C)c1cccc(C(F)(F)F)c1 (centres unmarked) | 14.35%
* COc1cc(CN(C)C(C)c2ccccn2)cc2c1OCO2 (centres unmarked) | -9.663%
* Cc1nc(N(C)CCN(C)C)c2cnn(C)c2n1 | -42.92% and -1.067%
* COc1cccc(CN2CC[C@H](c3nnc(-c4ccco4)o3)C2)c1 | 5.117% and 22.58%
* N#Cc1ccc(Cn2cncn2)c(F)c1 | -11.23% and -26.97%
* [H][C@]12CC[C@]([H])(CN(S(=O)(=O)c3cc(-n4cccn4)ccc3C)C1)N(C)C2 | 18.75%
* Cc1ccc(C(=O)NS(=O)(=O)c2ccccc2Cl)c(=O)[nH]1 | 29.32% and -11.22%
* CC(=O)N1CCC(Oc2ccc(Cl)cc2C(=O)N2CCCO2)CC1 | -5.322%
* CC(=O)NC1CCN(c2cc(C3CCNCC3)ccn2)CC1.Cl.Cl | 28.47%
* O=C1CC(NS(=O)(=O)c2ccc3ccccc3c2)CN1 (centres unmarked) | 6.689%
* CC1=C(C(=O)NCCc2n[nH]c3c2CCCC3)C(C)NC(=O)N1 (centres unmarked) | -7.349%
* Cc1cnc(Nc2cccc(C3CCCN3Cc3cn(C)nc3C)n2)s1 (centres unmarked) | -6.107%
* CCn1c(SCC(N)=O)nnc1C(C)NC(=O)c1ccc(Cl)cc1 (centres unmarked) | -84.66%
* COCC1CN(Cc2c(C)noc2C)Cc2cn(C)nc21 (centres unmarked) | -7.042% and -3.682%
* CCCc1nccn1-c1cccc(CN2CCCC2)c1 | 6.786%
* CCn1cc(CN(C)S(=O)(=O)N2CCCC2c2ccco2)cn1 (centres unmarked) | 6.666% and 24.87%
* O=C(NCCn1ccnc1)C1COCC(=O)N1Cc1ccccc1 (centres unmarked) | -8.988% and -35.3%
* CCS(=O)(=O)CCN(CC1CCCO1)C1CCCC1 (centres unmarked) | -3.626% and -1.7%
* O=C1OC2(CCNCC2)CN1CC(=O)N1CCCC1c1nccs1 (centres unmarked) | 4.518% and -1.084%
* CC(NC(=O)C1CC1)C(=O)N(C)Cc1ccsc1 (centres unmarked) | 4.242%
* Cc1nc(-c2ccccc2)n(CC(=O)NC(C)C2CC2)n1 (centres unmarked) | -7.631% and 1.789%
* O=C(Cc1n[nH]c(-c2cncc(Br)c2)n1)NCc1cccnc1 | -21.05%
* Cc1cnn(CC2CCN(CC(O)c3ccccc3F)CC2)c1 (centres unmarked) | -3.25% and -11.76%
* Cc1noc(C2CN(S(C)(=O)=O)Cc3ccnn3C2)n1 (centres unmarked) | 11.45%

Once more, the final 5:

* CC(NC(=O)C1CC1)C(=O)N(C)Cc1ccsc1 (centres unmarked) : 4.242%
* Cc1nc(-c2ccccc2)n(CC(=O)NC(C)C2CC2)n1 (centres unmarked) : -7.631% and 1.789%
* O=C(Cc1n[nH]c(-c2cncc(Br)c2)n1)NCc1cccnc1 : -21.05%
* Cc1cnn(CC2CCN(CC(O)c3ccccc3F)CC2)c1 (centres unmarked) : -3.25% and -11.76%
* Cc1noc(C2CN(S(C)(=O)=O)Cc3ccnn3C2)n1 (centres unmarked) : 11.45%